Measured values as given in PMC6972895.
No constants are given. Whether binding was seen depends on the method and setting. Some entries that bind do so weakly or less than the wild type. Sequences can lack the tags named with a protein.

Target: T1, CCT2-FLAG (FLAG-tagged CCT2, FLAG tag on the C-terminal of CCT2) (human), P78371
T1 chain: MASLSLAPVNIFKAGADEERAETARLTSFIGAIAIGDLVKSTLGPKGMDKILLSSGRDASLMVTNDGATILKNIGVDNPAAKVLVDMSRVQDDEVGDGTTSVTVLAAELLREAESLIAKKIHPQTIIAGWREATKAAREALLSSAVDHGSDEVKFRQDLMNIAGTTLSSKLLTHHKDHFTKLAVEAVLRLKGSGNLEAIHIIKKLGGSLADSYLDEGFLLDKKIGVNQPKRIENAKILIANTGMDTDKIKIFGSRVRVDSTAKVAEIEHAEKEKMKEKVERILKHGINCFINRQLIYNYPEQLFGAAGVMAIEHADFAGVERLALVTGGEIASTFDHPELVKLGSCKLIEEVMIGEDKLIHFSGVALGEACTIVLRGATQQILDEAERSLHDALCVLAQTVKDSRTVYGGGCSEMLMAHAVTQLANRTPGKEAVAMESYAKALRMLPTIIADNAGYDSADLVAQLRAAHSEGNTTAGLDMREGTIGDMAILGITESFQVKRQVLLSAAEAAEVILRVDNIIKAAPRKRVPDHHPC
Assay: native gel or EMSA; native PAGE of T47D CCT2-FLAG cell lysates; blotted for FLAG, CCT2 and CCT3; oligomeric complex against free monomer
Conditions: remark: other sources report otherwise

binding: binds
B1: Endogenous CCT2, P78371 1-535 (protein)
chain: T1 chain
